In patent US20220288040A1, “USE OF PYRVINIUM FOR THE TREATMENT OF A RAS PATHWAY MUTATED ACUTE MYELOID LEUKEMIA” (INSERM (INSTITUT NATIONAL DE LA SANTÉ ET DE LA RECHERCHE …, priority 2019, published 2022):

Tested on: NF1 knockdown AML cell lines
Description: UptiBlue: Cells were seeded in 100 μl of culture medium for 48 hours. […] The UptiBlue viable cell-counting reagent (Interchim, Montluçon, France) was then added for 4 hours and fluorescence was measured with a Typhoon 8600 scanner (GE Healthcare BioSciences, Buc, France).

With `Cc1cc(/C=C/c2ccc3cc(N(C)C)ccc3[n+]2C)c(C)n1-c1ccccc1` [pyrvinium pamoate, 2-[(E)-2-(2,5-dimethyl-1-phenyl-1H-pyrrol-3-yl)ethenyl]-6-(dimethylamino)-1-methylquinolin-1-ium] the cytotoxic activity was “strong cytotoxic activity”.
